Measured values taken from PubChem BioAssay AID1347421 (Sanford-Burnham Center for Chemical Genomics, 2020).
The full ranking holds about 1,500 compounds; the median of “activity” is about 2, and the lowest 2% start at about -18. The list shows a part of the results. Active and inactive are the calls of the source.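 Rule for the calls: active = inhibition of at least 40% at 10 µM; inconclusive = no clear call, values can overlap the other calls; inactive = the rest.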

The chains behind the UniProt entries cited, without tags or fusion partners. Where a name states a change or a piece, a line headed by the entry shows the natural chain unless it says otherwise.
UniProt O00391: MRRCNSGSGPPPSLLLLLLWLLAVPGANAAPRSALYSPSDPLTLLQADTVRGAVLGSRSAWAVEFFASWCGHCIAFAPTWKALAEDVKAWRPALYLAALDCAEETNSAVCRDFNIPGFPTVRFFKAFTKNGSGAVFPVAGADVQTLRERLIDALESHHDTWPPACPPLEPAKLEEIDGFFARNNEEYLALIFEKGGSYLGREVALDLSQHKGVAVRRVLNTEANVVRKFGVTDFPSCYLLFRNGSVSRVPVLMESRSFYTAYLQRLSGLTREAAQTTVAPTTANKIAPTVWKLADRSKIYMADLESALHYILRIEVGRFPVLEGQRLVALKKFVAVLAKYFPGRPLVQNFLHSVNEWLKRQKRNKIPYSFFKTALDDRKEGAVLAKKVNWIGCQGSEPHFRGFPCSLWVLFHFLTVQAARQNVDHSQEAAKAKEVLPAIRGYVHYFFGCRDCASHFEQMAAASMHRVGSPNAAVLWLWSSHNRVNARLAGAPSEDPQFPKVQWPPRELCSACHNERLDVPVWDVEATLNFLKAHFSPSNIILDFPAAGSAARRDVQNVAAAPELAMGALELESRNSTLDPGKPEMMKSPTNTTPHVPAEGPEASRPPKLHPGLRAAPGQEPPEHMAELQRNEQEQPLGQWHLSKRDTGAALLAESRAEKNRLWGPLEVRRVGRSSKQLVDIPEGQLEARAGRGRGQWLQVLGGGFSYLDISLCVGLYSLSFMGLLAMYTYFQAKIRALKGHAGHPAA

What follows are compounds tested against Sulfhydryl oxidase 1 (Homo sapiens) (UniProt O00391) (assay: human QSOX1 sulfhydryl oxidase inhibition – biochemical, ROS-Glo luminescence, single concentration, confirmation (AID 1347421;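 note: 0% = DMSO wells with enzyme and 100% = wells lacking QSOX1 enzyme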)). Conditions: recombinant hQSOX1, RNase A substrate, ROS-Glo H2O2 luminescence; at 10 µM.

Compound | activity
CC(C)N(C)Cc1nnnn1CC(=O)NCCc1cn2ccsc2n1 | 1.5%
CCn1c(SCC(=O)N2CCCCCC2)nc2ccccc21 | inactive: -11.6%
O=C(CCCn1nnnc1CN1CCOCC1)NC(c1ccccn1)C(F)(F)F (centres undefined) | 9.7%
O=C(c1csnn1)N1CCOC(CCCc2ccccc2)C1 (centres undefined) | 4.3%
O=C(CCC1CCN(C2CCSCC2)CC1)NCC1CCCO1 (centres undefined) | 0.9%
COc1ccc(-n2cc(CN(C)CC3COCCO3)c(-c3cccc(F)c3)n2)cc1 (centres undefined) | 1.7%
COc1ccc(NC(=S)NCCCn2ccnc2)cc1 | inactive: -2.9%
O=C(Cn1ncn2cccc2c1=O)N1CCC(CCn2cccn2)CC1 | 2.6%
COC(=O)c1ccc(N2CCOC(Cc3cccc(OC)c3)C2)nc1 (centres undefined) | 15.4%
O=C(Cn1ncc2ccccc2c1=O)N1CCCC(CN2CCOCC2)C1 (centres undefined) | 3.5%
c1csc(C2=N[N+](=C3CCNCC3)N=N2)c1 | inactive: -16.6%
COc1cc(/C=N/O)ccc1OCc1cccc(C(=O)O)c1 | active: 99.4%
COC(=O)c1ccc(N2CCOCC2)c(NC(=O)c2cccs2)c1 | 3.5%
O=C(CCC1CCCN(C/C=C/c2ccc(F)cc2)C1)N1CCCC1 (centres undefined) | inactive: -1.2%
O=C(CCC1CCN(C(=O)CCOc2ccccc2)CC1)NCc1cccnc1 | 4.8%
COc1cc(CN2CCC(CCC(=O)N3CCOCC3)CC2)cc(Cl)c1OC | inactive: -5.6%
COC(C)(C)CNCc1ccccc1OCC(O)CN1CCCCC1 (centres undefined) | 1.9%
O=C(c1ccc2c3c(cccc13)CC2)C1CCCN(C(=O)CCN2CCCO2)C1 (centres undefined) | inactive: -1.8%
Cc1oc(-c2ccccc2Cl)nc1CN(Cc1cnn(C)c1)C(C)C | 5.9%
Cc1nc(CN(C)C(=O)c2cn(Cc3ccccc3F)nn2)cs1 | active: 43.2%
O=C(c1ccoc1)N1CCC(C2CCN(Cc3cccnc3)CC2)C1 (centres undefined) | 3.8%
Cc1oc(-c2ccc(-c3ccccc3)cc2)nc1CN1CCOCC1 | 7.3%
CC(C)NC(=O)C1CCN(C2CCN(C3CCSCC3)CC2)CC1 | 0.2%
CC(C)Cn1c(CN(C)Cc2ccco2)cnc1S(=O)(=O)CC1CCCO1 (centres undefined) | 4.1%
CN1CCc2nc3sc(C(=O)NCc4ccc(F)cc4)c(N)c3cc2C1 | inactive: -4.7%
CCOC(=O)C1(Cc2cccc(OC)c2)CCN(CC(C)CC)CC1 (centres undefined) | 10.4%
Cc1cccnc1CN(C)C(=O)c1cc(-c2cnn(C)c2)nc2cc(F)ccc12 | 10.2%

Compound | activity
COc1cc(CN2CC[C@@H](N3CCCCCC3)[C@H](O)C2)ccc1F | 0.7%
CC(C)n1cc(CN2CCN(Cc3ccc(F)c(F)c3)C(CCO)C2)cn1 (centres undefined) | 1.2%
O=C(Nc1cccc(-n2cnnn2)c1)C1CCCN1CCCC(F)(F)F (centres undefined) | inactive: -2.9%
COc1ccccc1CNCc1ccc(C(=O)O)cc1 | inactive: -12.9%
COc1ccc(CN2CCN(Cc3ccoc3)CC2CCO)c(F)c1 (centres undefined) | 3.2%
Cc1ccc(F)cc1CNCc1ccc(OCC(O)CN2CCN(C)CC2)cc1 (centres undefined) | 1.9%
CN(C)S(=O)(=O)N1CCC(Oc2ccc(C(=O)N3CCN(CC4CC4)CC3)cc2)CC1 | 4%
Cc1cccc(CS(=O)(=O)NCCN(C)C)c1 | 7.7%
COC(=O)CCCNC(=O)C1CCC(=O)N(Cc2ccccc2OC)C1 (centres undefined) | 1.6%
NC(=O)C1CCN(C(=O)CN2CCC(Cc3ccccc3)CC2)CC1 | inactive: -15%
CN(Cc1cnccn1)C(=O)Nc1nnc(C(F)(F)F)s1 | 5.5%
COC(=O)c1ccc(-c2noc(CN(C)CC3Cc4ccccc4O3)n2)cc1 (centres undefined) | 5.4%
CC(=O)Nc1cccc(C(=O)N2CCN(c3ccccc3)CC2)c1 | 5.9%
O=C1COc2ccc(C(=O)NCc3ccco3)cc2N1 | inactive: -6.1%
COCCN1CCCC(O)(CN2CCCCCC2)C1=O (centres undefined) | 10.4%
C=CCN1CCN(c2nc3c(c(=O)[nH]c(=O)n3C)n2CCc2ccccc2)CC1 | inactive: -3.4%
CS(=O)(=O)N(CC(=O)N1CCCC1)Cc1ccc(F)cc1 | inactive: -19.7%
O=C(c1cn2cccnc2n1)N1CCOC(CCCc2ccccc2)C1 (centres undefined) | 2.1%
Cc1cc(C(=O)N2CCC(CCC(=O)NCC3CCCO3)CC2)nc(C)n1 (centres undefined) | 18.8%
CSc1ccccc1C(=O)C1CCCN(S(=O)(=O)c2c(C)nn(C)c2C)C1 (centres undefined) | 10.2%
COc1cccc(CNCc2ccc(F)cc2)c1 | inactive: -17.7%
C=CCCC(=O)NC1CC(=O)N(Cc2cccc3ccccc23)C1 (centres undefined) | 1%
Cc1ccccc1CCC1CCCN(C(=O)c2ccc(CN(C)C)o2)C1 (centres undefined) | 6.7%
CCOC(=O)c1ccc2c(N)c(-c3cccnc3)sc2n1 | 0.7%
CCC(c1ccc(OC)cc1)N(CC)C(=O)Nc1ccccc1 (centres undefined) | 2.6%
COc1ccc(F)cc1S(=O)(=O)NC(C)C | inactive: -2%
Fc1cccc(-c2cnnc(NCC(c3ccccn3)N3CCOCC3)n2)c1 (centres undefined) | 6.3%

4 records picked at random from the list so far:
Compound | activity
CC(=O)Nc1cccc(C(=O)N2CCN(c3ccccc3)CC2)c1 | 5.9%
CC(C)n1cc(CN2CCN(Cc3ccc(F)c(F)c3)C(CCO)C2)cn1 (centres undefined) | 1.2%
NC(=O)C1CCN(C(=O)CN2CCC(Cc3ccccc3)CC2)CC1 | inactive: -15%
O=C(Nc1cccc(-n2cnnn2)c1)C1CCCN1CCCC(F)(F)F (centres undefined) | inactive: -2.9%
